Assay results from article PMC8372377.
These are yes or no findings as the source states them, for the method shown. Binding can be weak; no strength is given. Where a sequence is shown, tags or fusion partners need not be part of it. For some of these results: Binding seen in cells or lysates may run through a third protein. Values belong to the molecule of their own block, whether it stands above or below them.

Amino acid sequences for entries named in this document (tags omitted). A change or cut given only in a name is not applied to a line headed by its entry.
UniProt Q9NPQ8: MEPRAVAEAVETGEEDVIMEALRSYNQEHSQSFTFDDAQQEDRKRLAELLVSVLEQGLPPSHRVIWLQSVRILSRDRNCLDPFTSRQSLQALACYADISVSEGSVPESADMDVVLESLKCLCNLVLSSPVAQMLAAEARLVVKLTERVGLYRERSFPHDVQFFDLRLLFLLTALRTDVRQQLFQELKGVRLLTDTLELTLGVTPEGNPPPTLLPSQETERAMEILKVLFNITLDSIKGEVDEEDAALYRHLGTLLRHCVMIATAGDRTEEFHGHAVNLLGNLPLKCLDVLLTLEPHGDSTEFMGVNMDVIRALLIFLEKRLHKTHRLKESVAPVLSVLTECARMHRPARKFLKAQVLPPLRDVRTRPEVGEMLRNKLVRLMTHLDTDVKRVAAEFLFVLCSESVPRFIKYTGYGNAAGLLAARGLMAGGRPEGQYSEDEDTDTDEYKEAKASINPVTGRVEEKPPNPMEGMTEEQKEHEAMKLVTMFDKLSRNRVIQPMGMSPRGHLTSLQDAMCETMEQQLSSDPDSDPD

Tests used:
Myc-MID1 = molecular target: T1, Myc-MID1 (UniProt O15344); test: co-IP; HEK-293T cells transfected with Myc-MID1 and Flag-RIC8A WT, N-terminal domain or C-terminal domain plasmids; Flag examined by western blotting
T1 sequence: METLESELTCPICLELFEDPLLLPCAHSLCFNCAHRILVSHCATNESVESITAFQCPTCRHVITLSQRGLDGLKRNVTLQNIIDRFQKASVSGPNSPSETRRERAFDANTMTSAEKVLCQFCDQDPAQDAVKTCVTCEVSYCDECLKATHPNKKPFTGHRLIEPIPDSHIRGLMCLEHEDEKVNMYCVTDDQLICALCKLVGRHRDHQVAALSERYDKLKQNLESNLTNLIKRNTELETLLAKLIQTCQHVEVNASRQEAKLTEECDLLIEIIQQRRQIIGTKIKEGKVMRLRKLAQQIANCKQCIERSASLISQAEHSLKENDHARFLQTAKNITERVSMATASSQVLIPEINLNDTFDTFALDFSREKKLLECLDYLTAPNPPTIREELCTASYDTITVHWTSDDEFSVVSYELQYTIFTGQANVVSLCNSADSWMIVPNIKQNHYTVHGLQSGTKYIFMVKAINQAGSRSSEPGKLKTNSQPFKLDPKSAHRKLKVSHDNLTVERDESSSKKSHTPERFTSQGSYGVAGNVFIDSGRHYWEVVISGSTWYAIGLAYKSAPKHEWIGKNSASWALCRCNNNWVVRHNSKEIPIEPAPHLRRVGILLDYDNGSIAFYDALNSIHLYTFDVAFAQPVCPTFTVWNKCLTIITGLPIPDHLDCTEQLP

Flag-RIC8A WT = test: co-IP; sequential IP: HEK-293T cells with Myc-MID1 and Flag-RIC8A; first Flag IP, rinsing with Flag peptides, eluates to a second IP with Myc antibodies or matching IgG; western blot
GST-RIC8A = GST-RIC8A (UniProt Q9NPQ8); test: pull-down; GST pull-down; GST-RIC8A and Myc-MID1 overexpressed and purified from cells; with or without circPDE4B RNA; GST as control; both purified

- binding (Myc-MID1): binds
Molecule: Flag-RIC8A N-terminal domain (1-153 amino acids) (domain or fragment)

- binding (Myc-MID1): binds
Molecule: Flag-RIC8A WT

The remaining lines, values behind:

B1: Myc-MID1 (protein, UniProt O15344 1-667)
chain: T1 sequence
- binding (Flag-RIC8A WT): binds

B2: Myc-MID1 (purified) (protein, UniProt O15344 1-667)
chain: T1 sequence
- binding (GST-RIC8A): binds
